Experimental data reported in the supplement of paper PMC6411743.
± gives the standard deviation of the averaged measurements. The entries are a selection whose mix differs from that of the whole data set.

How the values were obtained:
Test in all cases: NP40-soluble protein abundance relative to vehicle (solubility fold change) (ratio); higher = more soluble protein in presence of AMP-PNP
[1] = molecular target: T1, UniProt O95379-3|O95379-4
T1 sequence (whole entry): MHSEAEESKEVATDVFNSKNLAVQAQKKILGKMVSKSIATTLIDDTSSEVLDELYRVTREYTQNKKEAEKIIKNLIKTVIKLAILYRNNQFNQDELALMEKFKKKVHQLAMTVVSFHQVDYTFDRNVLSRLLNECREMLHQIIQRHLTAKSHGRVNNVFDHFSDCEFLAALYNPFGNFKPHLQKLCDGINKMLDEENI
Outline: (§1)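 Data come from three independent experiments in which Dounce-homogenised Jurkat crude lysate was treated at eight concentrations from 0.1 to 10 mM. Treatment ran 10 min at room temperature and then 3 min at 37 °C, after which 0.8% NP40 and benzonase were added for 60 min at 4 °C before ultracentrifugation. The supernatant underwent TMT labelling and LC-MS/MS, and vsn-normalised intensities were expressed as fold change against the detergent-processed vehicle in each replicate.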

[2] = molecular target: T2, UniProt O95479 and related entries
T2 sequence (whole entry): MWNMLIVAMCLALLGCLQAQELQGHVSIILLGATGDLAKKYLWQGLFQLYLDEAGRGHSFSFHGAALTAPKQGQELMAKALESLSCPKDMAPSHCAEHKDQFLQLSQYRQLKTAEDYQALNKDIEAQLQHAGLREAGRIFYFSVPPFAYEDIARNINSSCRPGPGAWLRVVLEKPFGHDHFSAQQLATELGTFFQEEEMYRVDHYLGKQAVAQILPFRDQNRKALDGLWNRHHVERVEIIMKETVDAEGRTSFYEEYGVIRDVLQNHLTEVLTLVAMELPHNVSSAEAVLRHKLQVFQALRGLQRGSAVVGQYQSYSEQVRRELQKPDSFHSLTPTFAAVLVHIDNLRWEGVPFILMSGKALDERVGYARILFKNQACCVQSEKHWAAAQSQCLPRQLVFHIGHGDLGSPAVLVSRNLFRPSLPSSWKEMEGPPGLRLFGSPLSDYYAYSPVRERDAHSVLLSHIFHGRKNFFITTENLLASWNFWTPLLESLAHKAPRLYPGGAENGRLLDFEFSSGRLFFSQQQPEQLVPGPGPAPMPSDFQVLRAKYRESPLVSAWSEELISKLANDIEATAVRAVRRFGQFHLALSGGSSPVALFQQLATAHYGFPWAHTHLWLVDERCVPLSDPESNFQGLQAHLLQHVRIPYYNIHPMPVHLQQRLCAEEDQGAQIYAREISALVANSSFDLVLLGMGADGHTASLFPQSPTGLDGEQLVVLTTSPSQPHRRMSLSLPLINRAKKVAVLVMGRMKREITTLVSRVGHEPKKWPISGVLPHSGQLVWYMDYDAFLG
Outline: as §1

[3] = molecular target: T3, UniProt O95487 and related entries
T3 sequence (whole entry): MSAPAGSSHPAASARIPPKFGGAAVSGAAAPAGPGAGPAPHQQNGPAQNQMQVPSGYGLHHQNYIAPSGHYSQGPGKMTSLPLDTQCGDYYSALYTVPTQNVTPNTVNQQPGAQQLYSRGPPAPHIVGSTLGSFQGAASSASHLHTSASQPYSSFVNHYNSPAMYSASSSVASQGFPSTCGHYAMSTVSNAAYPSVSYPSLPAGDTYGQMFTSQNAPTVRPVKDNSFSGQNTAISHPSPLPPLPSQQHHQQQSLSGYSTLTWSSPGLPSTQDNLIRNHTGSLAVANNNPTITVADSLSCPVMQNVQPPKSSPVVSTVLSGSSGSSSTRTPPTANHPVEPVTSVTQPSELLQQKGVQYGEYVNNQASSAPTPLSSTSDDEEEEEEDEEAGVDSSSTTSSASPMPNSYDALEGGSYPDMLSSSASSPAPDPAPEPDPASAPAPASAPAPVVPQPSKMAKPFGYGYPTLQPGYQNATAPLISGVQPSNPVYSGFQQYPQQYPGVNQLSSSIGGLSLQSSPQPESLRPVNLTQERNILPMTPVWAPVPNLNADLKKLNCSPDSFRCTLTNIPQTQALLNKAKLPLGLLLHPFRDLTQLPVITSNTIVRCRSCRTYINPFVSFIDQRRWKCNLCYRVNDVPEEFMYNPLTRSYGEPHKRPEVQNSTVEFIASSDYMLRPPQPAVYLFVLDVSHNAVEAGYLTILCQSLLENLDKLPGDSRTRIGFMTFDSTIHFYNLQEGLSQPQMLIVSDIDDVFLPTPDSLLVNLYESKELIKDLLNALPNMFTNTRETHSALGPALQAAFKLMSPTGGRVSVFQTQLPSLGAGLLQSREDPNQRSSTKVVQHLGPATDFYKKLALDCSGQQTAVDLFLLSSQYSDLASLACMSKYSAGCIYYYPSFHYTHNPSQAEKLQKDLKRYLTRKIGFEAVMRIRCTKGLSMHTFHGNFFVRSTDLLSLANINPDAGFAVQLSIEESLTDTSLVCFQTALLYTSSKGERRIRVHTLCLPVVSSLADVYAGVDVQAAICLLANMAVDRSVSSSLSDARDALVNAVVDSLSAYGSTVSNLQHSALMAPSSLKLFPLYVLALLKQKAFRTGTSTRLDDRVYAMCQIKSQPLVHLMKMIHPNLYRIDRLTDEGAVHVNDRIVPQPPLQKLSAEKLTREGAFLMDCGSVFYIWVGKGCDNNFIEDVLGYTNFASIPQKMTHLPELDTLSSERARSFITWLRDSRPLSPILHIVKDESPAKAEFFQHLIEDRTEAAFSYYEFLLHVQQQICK
Outline: as §1

[4] = molecular target: T4, UniProt O95684-2
T4 sequence (whole entry): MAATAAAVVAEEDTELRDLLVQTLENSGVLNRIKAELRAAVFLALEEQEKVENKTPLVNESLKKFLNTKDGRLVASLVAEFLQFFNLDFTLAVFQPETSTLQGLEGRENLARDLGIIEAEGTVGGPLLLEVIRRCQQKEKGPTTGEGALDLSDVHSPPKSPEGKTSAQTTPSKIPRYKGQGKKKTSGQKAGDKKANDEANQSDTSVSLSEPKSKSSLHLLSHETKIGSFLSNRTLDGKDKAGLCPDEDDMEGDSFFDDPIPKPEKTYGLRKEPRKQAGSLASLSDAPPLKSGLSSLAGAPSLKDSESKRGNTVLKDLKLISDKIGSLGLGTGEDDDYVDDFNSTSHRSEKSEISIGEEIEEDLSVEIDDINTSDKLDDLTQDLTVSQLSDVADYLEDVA
Outline: as §1

[5] = molecular target: T5, VAMP5 (UniProt O95183)
T5 sequence (whole entry): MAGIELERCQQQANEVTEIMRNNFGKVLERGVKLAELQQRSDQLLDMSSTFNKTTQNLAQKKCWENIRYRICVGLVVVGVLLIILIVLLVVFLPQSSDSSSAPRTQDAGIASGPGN
Outline: as §1

With `Nc1ncnc2c1ncn2[C@@H]1O[C@H](COP(=O)(O)OP(=O)(O)NP(=O)(O)O)[C@@H](O)[C@H]1O` [adenylyl imidodiphosphate] the NP40-soluble protein abundance ([1]; concentration: 6mM) was 0.998 ± 0.026, the NP40-soluble protein abundance ([1]; concentration: 8mM) was 1 ± 0.06 and the NP40-soluble protein abundance ([1]; concentration: 10mM) was 0.938 ± 0.056. It also gave an NP40-soluble protein abundance ([2]; concentration: 1mM) of 0.988 ± 0.021, an NP40-soluble protein abundance ([2]; concentration: 2mM) of 0.978 ± 0.058 and an NP40-soluble protein abundance ([2]; concentration: 4mM) of 1 ± 0.028. The NP40-soluble protein abundance ([2]; concentration: 6mM) was 0.965 ± 0.031, the NP40-soluble protein abundance ([2]; concentration: 8mM) was 0.963 ± 0.039 and the NP40-soluble protein abundance ([2]; concentration: 10mM) was 0.97 ± 0.033. For the same compound, the NP40-soluble protein abundance ([3]; concentration: 1mM) was 1.016 ± 0.0092, the NP40-soluble protein abundance ([3]; concentration: 2mM) was 1.01 ± 0.04 and the NP40-soluble protein abundance ([3]; concentration: 4mM) was 1.04 ± 0.025. For the same compound, the NP40-soluble protein abundance ([3]; concentration: 6mM) was 1.01 ± 0.021, the NP40-soluble protein abundance ([3]; concentration: 8mM) was 1.033 ± 0.0055 and the NP40-soluble protein abundance ([3]; concentration: 10mM) was 1.03 ± 0.019. For the same compound, the NP40-soluble protein abundance ([4]; concentration: 1mM) was 1.01 ± 0.019, the NP40-soluble protein abundance ([4]; concentration: 2mM) was 1.06 ± 0.083 and the NP40-soluble protein abundance ([4]; concentration: 4mM) was 1 ± 0.013. For the same compound, the NP40-soluble protein abundance ([4]; concentration: 6mM) was 0.973 ± 0.024, the NP40-soluble protein abundance ([4]; concentration: 8mM) was 0.945 ± 0.025 and the NP40-soluble protein abundance ([4]; concentration: 10mM) was 0.965 ± 0.053. For the same compound, the NP40-soluble protein abundance ([5]; concentration: 1mM) was 1.02 ± 0.044, the NP40-soluble protein abundance ([5]; concentration: 2mM) was 1.03 ± 0.048 and the NP40-soluble protein abundance ([5]; concentration: 4mM) was 1.03 ± 0.051. The NP40-soluble protein abundance ([5]; concentration: 6mM) was 0.991 ± 0.029, the NP40-soluble protein abundance ([5]; concentration: 8mM) was 1.01 ± 0.045 and the NP40-soluble protein abundance ([5]; concentration: 10mM) was 0.993 ± 0.025.
